US20220386609A1, “META-DIAMIDE INSECTICIDES” (FMC Corporation, priority 2019, published 2022)
Some entries share one result that the patent states for a list of compounds.

Key:
Type in all cases: in vivo
[1] = system: diamondback moth (Plutella xylostella (L.)); experiment: Test A: control of diamondback moth on mustard plant, foliar spray; settings: neonate larvae, 6 days, criterion is feeding damage bound and/or 100% mortality
[2] = system: fall armyworm (Spodoptera frugiperda (J. E. Smith)); experiment: Test B: control of fall armyworm on corn plant, foliar spray; settings: 1-day-old larvae, 6 days, criterion is feeding damage bound and/or 100% mortality
[3] = system: Western Flower Thrips (Frankliniellla occidentalis (Pergande)); experiment: Test H: control of Western Flower Thrips through contact and/or systemic means; settings: Soleil bean plant, adults and nymphs, 6 days, criterion is plant damage bound and/or 100% mortality
[4] = system: sweetpotato whitefly (Bemisia tabaci (Gennadius)); experiment: Test G: control of sweetpotato whitefly through contact and/or systemic means; settings: tested at 250 ppm; cotton plant infested with eggs, 13 days
[5] = system: cotton melon aphid (Aphis gossypii (Glover)); experiment: Test F: control of cotton melon aphid through contact and/or systemic means; settings: tested at 250 ppm; okra plant, 6 days
Method: (§1) Test compounds were formulated using a solution containing 10% acetone, 90% water and 300 ppm Activator 90® non-ionic surfactant (Loveland Products, Loveland, Colo., USA). The formulated compounds were applied in 1 mL of liquid through an atomizer nozzle positioned 1.27 cm (0.5 inches) above the top of each test unit. Test compounds were sprayed at the rates indicated, and each test was replicated three times.
[…] This was pre-infested with 30-40 insects on a piece of leaf according to the cut-leaf method, and the soil of the test unit was covered with a layer of sand.
Test compounds were formulated and sprayed at 250 and/or 50 ppm. After spraying, the test units were maintained in a growth chamber for 6 days at 19° C. and 70% relative humidity. Each test unit was then visually assessed for insect mortality.

[6] = system: potato leafhopper (Empoasca fabae (Harris)); experiment: Test D: control of potato leafhopper through contact and/or systemic means; settings: Soleil bean plant, adults, 6 days
Method: as §1
For evaluating control of potato leafhopper (Empoasca fabae (Harris)) through contact and/or systemic means, the test unit consisted of a small open container with a 5-6-day-old Soleil bean plant (primary leaves emerged) inside. White sand was added to the top of the soil, and one of the primary leaves was excised prior to application of the test compound.
Test compounds were formulated and sprayed at 250 and/or 50 ppm. After spraying of the formulated test compound, the test units were allowed to dry for 1 hour before they were post-infested with 5 potato leafhoppers (18-to-21-day-old adults). A black, screened cap was placed on the top of the test unit, and the test units were held for 6 days in a growth chamber at 20° C. and 70% relative humidity. Each test unit was then visually assessed for insect mortality.

| Structure (SMILES) | control efficacy: plant damage (30% or less plant damage and/or 100% mortality) ([3]; tested at 50 ppm) [%] | control efficacy: plant damage (30% or less plant damage and/or 100% mortality) ([3]; tested at 250 ppm) [%] | control efficacy: feeding damage (40% or less feeding damage and/or 100% mortality) ([1]; tested at 50 ppm) [%] | control efficacy: feeding damage (40% or less feeding damage and/or 100% mortality) ([1]; tested at 250 ppm) [%] | control efficacy: feeding damage (40% or less feeding damage and/or 100% mortality) ([2]; tested at 250 ppm) [%] | further results |
| --- | --- | --- | --- | --- | --- | --- |
| O=C(CC(c1cc(Cl)cc(Cl)c1)C(F)(F)F)Nc1ccc(Cl)c(C(=O)NCC(F)(F)F)c1 (single isomer, unassigned) [Compound 71] | ≤ 30 | ≤ 30 |  |  |  | control efficacy: feeding damage (40% or less feeding damage and/or 100% mortality) ([1]; tested at 10 ppm): ≤ 40%; control efficacy: feeding damage (40% or less feeding damage and/or 100% mortality) ([2]; tested at 10 ppm): ≤ 40% |
| O=C(CC(c1cccc(C(F)(F)F)c1)C(F)(F)F)Nc1ccc(Cl)c(C(=O)Nc2cccc(C(F)(F)F)c2)c1 (stereo not shown) [Compound 7] |  |  | ≤ 40 | ≤ 40 | ≤ 40 | mortality [4]: at least 70% |
| O=C(CC(c1cccc(C(F)(F)F)c1)C(F)(F)F)Nc1ccc(F)c(C(=O)NC2CC2)c1 (stereo not shown) [Compound 9] |  |  | ≤ 40 | ≤ 40 | ≤ 40 | control efficacy: feeding damage (40% or less feeding damage and/or 100% mortality) ([1]; tested at 10 ppm): ≤ 40%; control efficacy: feeding damage (40% or less feeding damage and/or 100% mortality) ([2]; tested at 50 ppm): ≤ 40%; mortality [5]: at least 80% |
| O=C(CC(c1ccc(Cl)c(Cl)c1)C(F)(F)F)Nc1ccc(F)c(C(=O)Nc2ccc(F)cc2)c1 (stereo not shown) [Compound 13] |  |  | ≤ 40 | ≤ 40 | ≤ 40 | control efficacy: feeding damage (40% or less feeding damage and/or 100% mortality) ([2]; tested at 50 ppm): ≤ 40%; mortality ([6]; tested at 250 ppm): at least 80% |
| O=C(CC(c1ccc(Cl)c(Cl)c1)C(F)(F)F)Nc1ccc(Cl)c(C(=O)NCC(F)(F)F)c1 (stereo not shown) [Compound 21] | ≤ 30 | ≤ 30 | ≤ 40 | ≤ 40 | ≤ 40 | mortality ([6]; tested at 250 ppm): at least 80% |
| O=C(CC(c1cc(Cl)cc(Cl)c1)C(F)(F)F)Nc1ccc(Cl)c(C(=O)NCC(F)(F)F)c1 (stereo not shown) [Compound 24] |  |  | ≤ 40 | ≤ 40 | ≤ 40 | control efficacy: feeding damage (40% or less feeding damage and/or 100% mortality) ([2]; tested at 50 ppm): ≤ 40%; mortality ([6]; tested at 250 ppm): at least 80%; mortality [5]: at least 80% |
| O=C(CC(c1ccc(Cl)c(Cl)c1)C(F)(F)F)Nc1ccc(Cl)c(C(=O)Nc2ccc(C(F)(F)F)cc2Cl)c1 (stereo not shown) [Compound 28] | ≤ 30 | ≤ 30 |  | ≤ 40 |  |  |
| O=C(CC(c1ccc(Cl)c(Cl)c1)C(F)(F)F)Nc1ccc(Cl)c(C(=O)Nc2ccc(Cl)cn2)c1 (stereo not shown) [Compound 30] | ≤ 30 | ≤ 30 |  | ≤ 40 | ≤ 40 | control efficacy: feeding damage (40% or less feeding damage and/or 100% mortality) ([2]; tested at 50 ppm): ≤ 40% |
| O=C(CC(c1cc(Cl)cc(Cl)c1)C(F)(F)F)Nc1ccc(Cl)c(C(=O)Nc2ccccc2F)c1 (stereo not shown) [Compound 33] |  | ≤ 30 | ≤ 40 | ≤ 40 | ≤ 40 |  |
| O=C(CC(c1ccc(Cl)c(Cl)c1)C(F)(F)F)Nc1ccc(Cl)c(C(=O)Nc2ccccc2F)c1 (stereo not shown) [Compound 36] |  | ≤ 30 | ≤ 40 | ≤ 40 | ≤ 40 |  |
| CCNC(=O)CNC(=O)c1cc(NC(=O)CC(c2cc(Cl)cc(Cl)c2)C(F)(F)F)ccc1Cl (stereo not shown) [Compound 37] | ≤ 30 |  |  | ≤ 40 |  |  |
| O=C(CC(c1cccc(F)c1)C(F)(F)F)Nc1ccc(Cl)c(C(=O)Nc2ccc(F)cc2)c1 (stereo not shown) [Compound 44] |  | ≤ 30 | ≤ 40 | ≤ 40 |  |  |
| CCNC(=O)CNC(=O)c1cc(NC(=O)CC(c2cc(Cl)cc(Cl)c2)C(F)(F)F)ccc1Cl (stereo not shown) [Compound 59] |  | ≤ 30 | ≤ 40 |  |  |  |
| O=C(CC(c1cc(F)cc(F)c1)C(F)(F)F)Nc1ccc(Cl)c(C(=O)Nc2ccc(F)cn2)c1 (stereo not shown) [Compound 62] | ≤ 30 | ≤ 30 |  | ≤ 40 |  |  |
| O=C(CC(c1cc(Cl)cc(Cl)c1)C(F)(F)F)Nc1ccc(Cl)c(C(=O)Nc2ccc(Cl)nc2)c1 (stereo not shown) [Compound 67] | ≤ 30 | ≤ 30 | ≤ 40 | ≤ 40 | ≤ 40 |  |
| O=C(CC(c1ccc(F)c(Cl)c1)C(F)(F)F)Nc1ccc(Cl)c(C(=O)Nc2ccc(F)cn2)c1 (stereo not shown) [Compound 68] |  | ≤ 30 | ≤ 40 | ≤ 40 | ≤ 40 | control efficacy: feeding damage (40% or less feeding damage and/or 100% mortality) ([1]; tested at 10 ppm): ≤ 40%; control efficacy: feeding damage (40% or less feeding damage and/or 100% mortality) ([2]; tested at 10 ppm): ≤ 40%; control efficacy: feeding damage (40% or less feeding damage and/or 100% mortality) ([2]; tested at 50 ppm): ≤ 40% |
| O=C(CC(c1ccc(Cl)c(Cl)c1)C(F)(F)F)Nc1ccc(Cl)c(C(=O)Nc2ccc(C(F)(F)F)nc2Cl)c1 (stereo not shown) [Compound 69] |  |  |  | ≤ 40 |  | mortality [4]: at least 70% |
| O=C(CC(c1ccc(Cl)c(Cl)c1)C(F)(F)F)Nc1ccc(Cl)c(C(=O)Nc2ccc(F)cc2F)c1 (stereo not shown) [Compound 94] |  |  |  |  |  | mortality [4]: at least 70% |
| O=C(CC(c1cccc(C(F)(F)F)c1)C(F)(F)F)Nc1ccc(Cl)c(C(=O)Nc2cc(F)c(F)c(F)c2)c1 (stereo not shown) [Compound 111] |  |  |  |  |  | mortality ([6]; tested at 50 ppm): at least 80% |
| O=C(CC(c1cc(Cl)c(F)c(Cl)c1)C(F)(F)F)Nc1ccc(Cl)c(C(=O)Nc2ccc(F)cc2)c1 (stereo not shown) [Compound 118] |  |  |  |  |  | mortality ([6]; tested at 50 ppm): at least 80% |
| O=C(CC(c1cccc(C(F)(F)F)c1)C(F)(F)F)Nc1ccc(C(F)(F)F)c(C(=O)Nc2ccc(F)cc2F)c1 (stereo not shown) [Compound 138] |  |  | ≤ 40 |  |  | control efficacy: feeding damage (40% or less feeding damage and/or 100% mortality) ([1]; tested at 10 ppm): ≤ 40%; control efficacy: feeding damage (40% or less feeding damage and/or 100% mortality) ([2]; tested at 10 ppm): ≤ 40%; control efficacy: feeding damage (40% or less feeding damage and/or 100% mortality) ([2]; tested at 50 ppm): ≤ 40%; mortality ([6]; tested at 50 ppm): at least 80% |
